Data published in paper PMC11274882.

Chains of the proteins cited; added tags and fusions are not shown. Residues count along the entry.
UniProt Q9H6I2, 74-145: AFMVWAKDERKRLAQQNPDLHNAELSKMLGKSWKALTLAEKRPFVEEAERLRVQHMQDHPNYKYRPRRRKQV
UniProt O94993, 335-423: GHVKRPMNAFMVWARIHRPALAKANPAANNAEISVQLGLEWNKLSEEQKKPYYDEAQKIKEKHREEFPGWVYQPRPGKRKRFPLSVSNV

Assays:
SOX17 dN HMG-box = SOX17 dN HMG-box (UniProt Q9H6I2); test: fluorescence polarisation; details: some binding at highest concentrations, Kd not determined; FP: 50 mM Tris, 125 mM NaCl, pH 8.0, 80 nM RNA, temperature not stated; recombinant protein; residues 74-145; protein details: 6xHis; label: 3' FAM
SOX30 HMG-box = SOX30 HMG-box (UniProt O94993); test: EMSA; details: used as negative control; EMSA: equal volumes of 100 uM protein and ssDNA, room temperature 15 min, 1.5% agarose, TB buffer pH 7.4; recombinant protein; residues 335-423; protein details: 6xHis; single-stranded DNA

“GGUCGCCGUGGCCACUUCGAAAGGGGUGGAAAGGGCGACC [40-mer RNA, ES2 lncRNA hairpin Loop A]”: binds more weakly (SOX17 dN HMG-box).
CCCCATCTTAGTATATTAGTTA [22-mer ssDNA]: no binding (SOX30 HMG-box).

For some assays here: No signal at the amounts used counts as a negative. For some assays here: At least one verdict rests on a figure or table, not on a statement of the authors. For some assays here: Weaker means in comparison with the reference protein, sequence or condition of that experiment.
